Test results published in US5240962A, “Antiobesity and fat-reducing agents” (priority 1991, dated 1993).

Test: Effect on fat content of broiler chickens
Assay type: in vivo
Conditions: 27 days, broilers
Description: Four groups of 5 seven-day old broiler having an average weight of 129 g were used. A test diet was available ad libitum to all birds during the test period (27 days).
Control birds received no test compound. […] At the conclusion of the test, all birds were sacrificed and processed to determine fat weights and body weights. Feed intake was also recorded.

CCCCCCCCCCCCCCCc1cccc(O)c1C(=O)O [Compound 1, 6 - Pentadecylsalicylic Acid]
Feed Consumed (0.1% in diet): 2000 g | Feed Consumed (0.2% in diet): 2250 g
